The results in this text go back to the supplement of paper PMC12067093, “Discovery and optimisation of a covalent ligand for TRIM25 and its application to targeted protein ubiquitination” (Chemical Science, 2025).

The chains behind the UniProt entries cited, without tags or fusion partners. Where a name states a change or a piece, a line headed by the entry shows the natural chain unless it says otherwise.
UniProt O43159: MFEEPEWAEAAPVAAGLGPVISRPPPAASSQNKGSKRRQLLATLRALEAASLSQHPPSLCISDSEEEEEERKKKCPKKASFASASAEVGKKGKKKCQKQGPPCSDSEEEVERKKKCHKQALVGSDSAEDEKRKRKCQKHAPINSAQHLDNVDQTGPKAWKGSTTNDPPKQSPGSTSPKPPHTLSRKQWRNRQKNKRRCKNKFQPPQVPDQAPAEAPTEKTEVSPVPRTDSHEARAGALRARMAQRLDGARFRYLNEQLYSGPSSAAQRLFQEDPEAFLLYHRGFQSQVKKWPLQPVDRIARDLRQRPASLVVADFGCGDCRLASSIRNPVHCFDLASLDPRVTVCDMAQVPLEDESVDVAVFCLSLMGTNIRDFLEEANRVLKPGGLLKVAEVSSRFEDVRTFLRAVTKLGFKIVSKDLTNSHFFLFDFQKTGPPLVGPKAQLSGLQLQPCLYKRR
UniProt Q9BY42: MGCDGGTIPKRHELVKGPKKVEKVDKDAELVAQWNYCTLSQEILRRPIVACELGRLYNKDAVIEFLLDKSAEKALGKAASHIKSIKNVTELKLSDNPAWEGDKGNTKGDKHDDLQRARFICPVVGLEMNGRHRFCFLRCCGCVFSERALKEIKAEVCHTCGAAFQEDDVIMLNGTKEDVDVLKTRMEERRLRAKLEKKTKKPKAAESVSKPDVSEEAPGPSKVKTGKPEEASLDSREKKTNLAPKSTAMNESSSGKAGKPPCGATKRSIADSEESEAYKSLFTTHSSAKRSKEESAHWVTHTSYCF
UniProt P31350, whole entry, looked up: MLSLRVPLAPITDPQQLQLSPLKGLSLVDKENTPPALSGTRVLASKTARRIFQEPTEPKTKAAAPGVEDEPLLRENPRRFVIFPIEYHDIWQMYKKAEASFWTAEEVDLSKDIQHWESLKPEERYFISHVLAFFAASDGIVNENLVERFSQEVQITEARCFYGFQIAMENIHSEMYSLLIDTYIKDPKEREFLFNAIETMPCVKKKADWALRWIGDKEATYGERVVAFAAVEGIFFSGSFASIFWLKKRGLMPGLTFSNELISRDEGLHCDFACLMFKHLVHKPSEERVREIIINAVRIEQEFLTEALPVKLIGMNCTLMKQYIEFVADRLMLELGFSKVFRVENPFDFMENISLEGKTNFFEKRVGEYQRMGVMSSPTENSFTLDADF
UniProt Q9NZJ4: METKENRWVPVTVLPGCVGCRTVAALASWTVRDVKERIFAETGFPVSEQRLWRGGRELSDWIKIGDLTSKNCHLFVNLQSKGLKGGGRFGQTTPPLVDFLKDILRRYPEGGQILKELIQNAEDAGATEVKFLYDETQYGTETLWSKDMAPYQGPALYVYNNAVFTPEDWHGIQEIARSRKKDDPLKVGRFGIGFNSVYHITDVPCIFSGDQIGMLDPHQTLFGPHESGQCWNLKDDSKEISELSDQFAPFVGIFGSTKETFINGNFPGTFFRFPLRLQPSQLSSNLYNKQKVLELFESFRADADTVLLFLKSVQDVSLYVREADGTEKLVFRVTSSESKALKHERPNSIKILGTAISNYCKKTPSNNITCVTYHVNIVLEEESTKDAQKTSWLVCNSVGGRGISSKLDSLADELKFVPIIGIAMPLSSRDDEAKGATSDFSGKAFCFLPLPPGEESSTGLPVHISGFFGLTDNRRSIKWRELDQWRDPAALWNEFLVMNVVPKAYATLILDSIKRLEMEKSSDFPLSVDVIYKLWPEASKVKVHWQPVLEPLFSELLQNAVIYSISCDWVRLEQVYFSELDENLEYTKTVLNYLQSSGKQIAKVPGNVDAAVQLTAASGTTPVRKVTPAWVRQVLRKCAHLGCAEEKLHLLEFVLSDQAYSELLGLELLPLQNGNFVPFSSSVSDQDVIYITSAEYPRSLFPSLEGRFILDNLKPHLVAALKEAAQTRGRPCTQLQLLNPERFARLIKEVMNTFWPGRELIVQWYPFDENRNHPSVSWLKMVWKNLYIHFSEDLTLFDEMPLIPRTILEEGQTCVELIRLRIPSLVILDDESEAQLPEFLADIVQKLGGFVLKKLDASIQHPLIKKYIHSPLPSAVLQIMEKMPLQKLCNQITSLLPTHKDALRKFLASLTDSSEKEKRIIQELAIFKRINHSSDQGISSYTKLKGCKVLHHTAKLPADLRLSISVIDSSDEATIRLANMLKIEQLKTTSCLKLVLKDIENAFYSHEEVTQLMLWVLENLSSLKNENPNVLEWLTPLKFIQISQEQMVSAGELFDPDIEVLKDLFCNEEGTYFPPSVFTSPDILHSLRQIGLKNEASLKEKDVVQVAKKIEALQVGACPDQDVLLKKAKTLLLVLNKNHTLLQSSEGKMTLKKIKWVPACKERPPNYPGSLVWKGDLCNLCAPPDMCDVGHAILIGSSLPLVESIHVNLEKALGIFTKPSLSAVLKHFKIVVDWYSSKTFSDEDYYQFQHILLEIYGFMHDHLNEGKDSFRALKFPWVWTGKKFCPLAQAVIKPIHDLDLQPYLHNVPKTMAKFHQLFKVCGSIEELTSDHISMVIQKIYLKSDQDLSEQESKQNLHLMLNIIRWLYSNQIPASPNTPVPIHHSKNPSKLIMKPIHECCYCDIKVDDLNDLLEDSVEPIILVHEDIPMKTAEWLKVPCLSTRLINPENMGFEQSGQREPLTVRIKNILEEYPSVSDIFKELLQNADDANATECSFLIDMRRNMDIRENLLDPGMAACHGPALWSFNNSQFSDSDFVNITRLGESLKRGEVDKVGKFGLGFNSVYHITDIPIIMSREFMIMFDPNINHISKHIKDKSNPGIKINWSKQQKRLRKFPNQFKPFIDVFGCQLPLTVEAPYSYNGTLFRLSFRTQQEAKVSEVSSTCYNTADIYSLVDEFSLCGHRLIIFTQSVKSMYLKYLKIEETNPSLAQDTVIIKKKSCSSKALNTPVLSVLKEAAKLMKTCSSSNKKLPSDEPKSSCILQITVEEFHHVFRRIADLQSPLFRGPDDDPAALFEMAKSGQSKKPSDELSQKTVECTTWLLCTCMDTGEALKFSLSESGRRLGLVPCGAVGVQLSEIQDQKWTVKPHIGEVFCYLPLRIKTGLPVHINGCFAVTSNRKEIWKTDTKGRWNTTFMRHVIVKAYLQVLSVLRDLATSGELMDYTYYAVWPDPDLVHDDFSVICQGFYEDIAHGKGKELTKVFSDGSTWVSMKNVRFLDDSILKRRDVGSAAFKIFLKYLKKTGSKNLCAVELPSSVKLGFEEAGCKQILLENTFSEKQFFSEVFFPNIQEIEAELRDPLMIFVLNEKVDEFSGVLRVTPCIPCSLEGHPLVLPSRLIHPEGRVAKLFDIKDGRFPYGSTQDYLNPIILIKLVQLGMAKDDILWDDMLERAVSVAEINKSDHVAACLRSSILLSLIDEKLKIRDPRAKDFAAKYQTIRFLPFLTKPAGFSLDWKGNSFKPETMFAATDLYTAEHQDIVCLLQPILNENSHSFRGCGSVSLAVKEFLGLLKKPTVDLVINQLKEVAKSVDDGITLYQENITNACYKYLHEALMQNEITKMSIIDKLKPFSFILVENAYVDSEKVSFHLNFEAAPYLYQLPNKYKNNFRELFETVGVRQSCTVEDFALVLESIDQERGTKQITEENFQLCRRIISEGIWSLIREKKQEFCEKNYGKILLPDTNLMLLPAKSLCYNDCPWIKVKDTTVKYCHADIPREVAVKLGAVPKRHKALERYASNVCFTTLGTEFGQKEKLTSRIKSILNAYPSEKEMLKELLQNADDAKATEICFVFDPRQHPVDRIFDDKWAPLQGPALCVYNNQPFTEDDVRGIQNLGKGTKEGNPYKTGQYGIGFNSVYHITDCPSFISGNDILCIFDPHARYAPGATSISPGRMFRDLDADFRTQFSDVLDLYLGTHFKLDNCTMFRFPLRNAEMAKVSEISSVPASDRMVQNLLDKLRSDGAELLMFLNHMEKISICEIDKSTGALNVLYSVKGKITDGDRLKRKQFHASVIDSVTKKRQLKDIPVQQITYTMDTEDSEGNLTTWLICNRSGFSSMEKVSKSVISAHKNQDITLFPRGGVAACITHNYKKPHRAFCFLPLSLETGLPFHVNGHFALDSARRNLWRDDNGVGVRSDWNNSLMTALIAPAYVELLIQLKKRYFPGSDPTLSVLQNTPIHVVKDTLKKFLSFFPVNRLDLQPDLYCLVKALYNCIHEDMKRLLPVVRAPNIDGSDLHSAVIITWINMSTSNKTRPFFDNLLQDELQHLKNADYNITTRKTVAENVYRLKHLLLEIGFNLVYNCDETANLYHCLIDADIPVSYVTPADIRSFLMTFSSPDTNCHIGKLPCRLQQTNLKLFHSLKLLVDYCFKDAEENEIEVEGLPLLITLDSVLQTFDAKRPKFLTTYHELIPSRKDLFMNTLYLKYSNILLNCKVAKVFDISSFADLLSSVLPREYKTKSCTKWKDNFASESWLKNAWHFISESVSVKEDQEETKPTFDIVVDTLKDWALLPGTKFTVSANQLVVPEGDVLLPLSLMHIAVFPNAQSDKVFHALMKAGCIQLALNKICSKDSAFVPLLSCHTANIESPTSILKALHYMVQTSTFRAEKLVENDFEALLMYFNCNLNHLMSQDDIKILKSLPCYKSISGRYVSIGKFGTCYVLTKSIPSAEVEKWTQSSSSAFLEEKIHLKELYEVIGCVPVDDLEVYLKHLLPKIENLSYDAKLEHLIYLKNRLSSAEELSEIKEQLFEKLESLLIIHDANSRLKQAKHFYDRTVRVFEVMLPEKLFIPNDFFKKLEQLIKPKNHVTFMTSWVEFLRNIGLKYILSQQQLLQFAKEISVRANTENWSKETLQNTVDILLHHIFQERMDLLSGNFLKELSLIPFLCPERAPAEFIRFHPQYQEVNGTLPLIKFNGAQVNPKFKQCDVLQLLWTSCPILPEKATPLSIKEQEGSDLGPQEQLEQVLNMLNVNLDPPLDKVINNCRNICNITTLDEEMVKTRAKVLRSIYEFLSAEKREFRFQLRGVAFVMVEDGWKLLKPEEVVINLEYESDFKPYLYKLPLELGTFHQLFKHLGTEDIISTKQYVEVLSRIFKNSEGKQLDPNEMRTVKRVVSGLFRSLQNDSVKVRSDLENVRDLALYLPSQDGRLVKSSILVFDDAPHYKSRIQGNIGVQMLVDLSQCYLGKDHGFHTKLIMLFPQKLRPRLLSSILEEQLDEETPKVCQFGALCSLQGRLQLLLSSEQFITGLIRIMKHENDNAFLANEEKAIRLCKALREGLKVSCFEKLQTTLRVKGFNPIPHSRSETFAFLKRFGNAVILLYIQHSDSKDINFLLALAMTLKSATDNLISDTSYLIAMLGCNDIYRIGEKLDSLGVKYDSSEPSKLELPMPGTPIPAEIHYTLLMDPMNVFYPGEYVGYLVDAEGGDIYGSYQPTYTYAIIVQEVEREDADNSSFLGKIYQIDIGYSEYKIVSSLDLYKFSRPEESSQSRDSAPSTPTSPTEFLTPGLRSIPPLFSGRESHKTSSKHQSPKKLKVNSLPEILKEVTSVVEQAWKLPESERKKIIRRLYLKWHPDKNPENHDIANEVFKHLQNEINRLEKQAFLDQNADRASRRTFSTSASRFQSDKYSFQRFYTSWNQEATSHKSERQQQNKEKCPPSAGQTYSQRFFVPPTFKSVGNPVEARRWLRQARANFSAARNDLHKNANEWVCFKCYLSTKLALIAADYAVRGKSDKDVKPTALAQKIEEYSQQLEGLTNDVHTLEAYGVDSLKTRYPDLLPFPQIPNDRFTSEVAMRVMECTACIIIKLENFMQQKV
UniProt Q9Y3Z3: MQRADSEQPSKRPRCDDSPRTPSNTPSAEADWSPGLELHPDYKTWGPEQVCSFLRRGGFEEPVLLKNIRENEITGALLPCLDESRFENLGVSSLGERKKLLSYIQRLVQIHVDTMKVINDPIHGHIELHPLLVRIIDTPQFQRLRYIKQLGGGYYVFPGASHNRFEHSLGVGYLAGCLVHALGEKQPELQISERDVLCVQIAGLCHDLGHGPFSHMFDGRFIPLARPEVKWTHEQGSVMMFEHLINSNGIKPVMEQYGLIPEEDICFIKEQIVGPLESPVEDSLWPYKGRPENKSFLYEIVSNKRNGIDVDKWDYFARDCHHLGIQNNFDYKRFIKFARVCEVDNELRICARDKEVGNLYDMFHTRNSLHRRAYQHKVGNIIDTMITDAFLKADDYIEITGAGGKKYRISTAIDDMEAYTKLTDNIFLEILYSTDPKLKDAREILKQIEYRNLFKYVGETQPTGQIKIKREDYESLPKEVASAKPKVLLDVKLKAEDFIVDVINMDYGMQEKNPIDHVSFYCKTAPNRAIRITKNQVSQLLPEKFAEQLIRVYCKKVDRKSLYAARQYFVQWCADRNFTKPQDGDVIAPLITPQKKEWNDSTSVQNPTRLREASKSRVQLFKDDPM

The other results are listed elsewhere or left out.

Compound in this assay: CC1Cc2ccccc2N1C(=O)C1CCCN(C1)C(=O)CCl (mixture of isomers) [TRIM25 ligand 11 (diastereomer mixture)]
As to the kind of experiment: probe-labelled cysteine peptide fold change vs DMSO (competition) (log2 fold change); higher = less target engagement (more negative = stronger competition). The note with it: THP-1, incubation time: 4 h.
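Note: competitive chemoproteomic profiling in live THP-1 cells with an iodoacetamide desthiobiotin (IA-DTB) probe, comparing probe-labelled peptide intensities in compound-treated cells against DMSO-treated controls.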

In the case of “RRP8_O43159_317+320_QRPASLVVADFGCGDCR (UniProt O43159)”, the “probe-labelled cysteine peptide fold change” value is 0.0551 (10 µM) and -0.202 (50 µM).

Take “RREB1_Q92766_805_NCIHHILK (UniProt Q92766)”: the “probe-labelled cysteine peptide fold change” value runs as follows: (10 µM) -0.119; (50 µM) -0.043.

Consider “RTFDC1_Q9BY42_37_DAELVAQWNYCTLSQEILR (UniProt Q9BY42)”, for which the “probe-labelled cysteine peptide fold change” value is, setting by setting: (10 µM) 0.301; (50 µM) 0.254.

As for “RRM2_P31350_270+274_DEGLHCDFACLMFK (UniProt P31350)”, the “probe-labelled cysteine peptide fold change” value (10 µM) came out at 0.242 and the “probe-labelled cysteine peptide fold change” value (50 µM) was 0.117.

“SACS_Q9NZJ4_2869_AFCFLPLSLETGLPFHVNGHFALDSAR (UniProt Q9NZJ4)”: the “probe-labelled cysteine peptide fold change” value runs as follows: (10 µM) 0.248; (50 µM) 0.126.

For “RPS15A_P62244_72_CGVISPR (UniProt P62244)”, the “probe-labelled cysteine peptide fold change” value by setting is: (10 µM) -0.044; (50 µM) -0.0605.

On to “RPS12_P25398_69_LVEALCAEHQINLIK (UniProt P25398)”, for which the “probe-labelled cysteine peptide fold change” value is, setting by setting: (10 µM) 0.00756; (50 µM) -0.0276.

“RTTN_Q86VV8_2128_SSPLLPLLIFHNVCFSPANKPK (UniProt Q86VV8)”: the “probe-labelled cysteine peptide fold change” value is -0.115 (10 µM) and 0.216 (50 µM).

As to “RPS6KA1_Q15418-4_17_DLVPCPR (UniProt Q15418)”, the “probe-labelled cysteine peptide fold change” value is -0.0198 (10 µM) and -0.135 (50 µM).

Turning to “SAAL1_Q96ER3_366_VLQNMEQCQK (UniProt Q96ER3)”, the “probe-labelled cysteine peptide fold change” value was 0.0806 (10 µM) and -0.0617 (50 µM).

For “SAMHD1_Q9Y3Z3_15_CDDSPR (UniProt Q9Y3Z3)”, the “probe-labelled cysteine peptide fold change” value (10 µM) was -0.104 and the “probe-labelled cysteine peptide fold change” value (50 µM) is -0.119.

Consider “SACS_Q9NZJ4_1846_LGLVPCGAVGVQLSEIQDQK (UniProt Q9NZJ4)”, for which the “probe-labelled cysteine peptide fold change” value (10 µM) is -0.0692 and the “probe-labelled cysteine peptide fold change” value (50 µM) is -0.0784.

With “RPP40_O75818_298_ICLLLEHLCHYFDEPK (UniProt O75818)”, the “probe-labelled cysteine peptide fold change” value is, setting by setting: (10 µM) 0.179; (50 µM) 0.234.

With “RUVBL1_Q9Y265_311_YIDQGIAELVPGVLFVDEVHMLDIECFTYLHR (UniProt Q9Y265)”, the “probe-labelled cysteine peptide fold change” value (10 µM) was -0.184 and the “probe-labelled cysteine peptide fold change” value (50 µM) was -0.131.

“RPS12_P25398_56_RQAHLCVLASNCDEPMYVK (UniProt P25398)”: the “probe-labelled cysteine peptide fold change” value was 0.0283 (10 µM) and -0.228 (50 µM).

As to “RSL24D1_Q9UHA3_9_CYFCSGPIYPGHGMMFVR (UniProt Q9UHA3)”, the “probe-labelled cysteine peptide fold change” value runs as follows: (10 µM) -0.21; (50 µM) -0.0866.

For the target “RRP12_Q5JTH9_446_ECVAPHMADIGSVTSSASGPAQSVAK (UniProt Q5JTH9)”, the “probe-labelled cysteine peptide fold change” value was -0.114 (10 µM) and -0.0269 (50 µM).

Consider “RTCB_Q9Y3I0_255_GQVCVMIHSGSR (UniProt Q9Y3I0)”, for which the “probe-labelled cysteine peptide fold change” value reads like this: (10 µM) 0.00368; (50 µM) 0.0139.

For “SACS_Q9NZJ4_2182_SDHVAACLR (UniProt Q9NZJ4)”, the “probe-labelled cysteine peptide fold change” value (10 µM) worked out at 0.0426 and the “probe-labelled cysteine peptide fold change” value (50 µM) is -0.108.

Turning to “RRM1_P23921_492_IIDINYYPVPEACLSNK (UniProt P23921)”, the “probe-labelled cysteine peptide fold change” value reads like this: (10 µM) 0.171; (50 µM) 0.171.
